# Reference: publication PMC10993617
# By UniProt entry, the sequences of proteins in these tests, tags left out.
# UniProt P10415: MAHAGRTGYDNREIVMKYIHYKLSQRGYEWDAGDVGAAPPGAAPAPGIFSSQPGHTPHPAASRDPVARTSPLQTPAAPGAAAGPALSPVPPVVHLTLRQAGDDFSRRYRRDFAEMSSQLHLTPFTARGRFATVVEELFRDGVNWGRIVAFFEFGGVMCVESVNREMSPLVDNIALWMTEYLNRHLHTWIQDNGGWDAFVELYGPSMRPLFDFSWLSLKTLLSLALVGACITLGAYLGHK
# UniProt Q14457: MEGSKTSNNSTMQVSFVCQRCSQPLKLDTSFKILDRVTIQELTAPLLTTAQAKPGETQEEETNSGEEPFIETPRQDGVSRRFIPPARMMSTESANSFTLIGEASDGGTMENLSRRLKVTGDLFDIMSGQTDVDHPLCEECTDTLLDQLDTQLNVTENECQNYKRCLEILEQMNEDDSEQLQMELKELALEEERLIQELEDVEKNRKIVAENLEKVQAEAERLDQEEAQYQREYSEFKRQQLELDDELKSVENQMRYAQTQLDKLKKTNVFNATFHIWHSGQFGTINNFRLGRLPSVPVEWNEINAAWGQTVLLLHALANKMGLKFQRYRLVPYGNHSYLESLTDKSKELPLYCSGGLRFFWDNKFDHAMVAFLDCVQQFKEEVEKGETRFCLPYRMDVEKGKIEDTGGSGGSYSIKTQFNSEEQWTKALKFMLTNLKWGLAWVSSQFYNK
# These are yes or no findings as the source states them, for the method shown. In cells and extracts the contact can be indirect. Some results given as binding are weak or reduced against the parent protein; the word gives no strength.
# Molecular target: Bcl-2 (human (endogenous in primary endometrial stromal cells)) (UniProt P10415)
# Assay: co-IP; lysates of ESCs (control or hCG-treated) in IP lysis buffer (25 mM Tris-HCl, 150 mM NaCl, 1 mM EDTA, 1% NP-40, 1% protease inhibitor); precipitated with anti-Bcl-2 antibody or control IgG for 1 h at 4 °C on Protein A/G PLUS-Agarose; western blot for Bcl-2 or Beclin1
substance,measurement,value
Beclin1 (from UniProt Q14457 1-450),binding,binds
